Measured values taken from the supplement of paper PMC12823440, “Inhibitors supercharge kinase turnover through native proteolytic circuits” (Nature, 2025).
Where a name gives a salt, the structure may show the parent alone. The list shows a part of the results. Hit calls seldom repeat between salt and free forms of one compound.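 In K562 cells expressing nanoluciferase-fused kinases, luminescence was recorded at 4 h intervals between 2 and 18 h, normalized as percent of control with DMSO at 100% and a positive control at 0%. A significant (2 sigma) signal drop marks a time point as decreased. The authors' rule for a hit is not shown and takes in more than the number of time points.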

By UniProt entry, the sequences of proteins in these tests, tags left out. Where a name states a change or a piece, a line headed by the entry shows the natural chain unless it says otherwise.
UniProt Q00526: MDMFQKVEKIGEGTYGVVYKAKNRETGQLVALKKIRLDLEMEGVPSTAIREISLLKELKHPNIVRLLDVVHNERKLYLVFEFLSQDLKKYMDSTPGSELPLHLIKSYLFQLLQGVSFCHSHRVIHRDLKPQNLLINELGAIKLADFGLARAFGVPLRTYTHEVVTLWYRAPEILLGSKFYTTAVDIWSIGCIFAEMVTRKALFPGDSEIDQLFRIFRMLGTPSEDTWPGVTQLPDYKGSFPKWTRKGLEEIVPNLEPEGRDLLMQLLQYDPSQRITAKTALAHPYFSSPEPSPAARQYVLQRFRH
UniProt P11802: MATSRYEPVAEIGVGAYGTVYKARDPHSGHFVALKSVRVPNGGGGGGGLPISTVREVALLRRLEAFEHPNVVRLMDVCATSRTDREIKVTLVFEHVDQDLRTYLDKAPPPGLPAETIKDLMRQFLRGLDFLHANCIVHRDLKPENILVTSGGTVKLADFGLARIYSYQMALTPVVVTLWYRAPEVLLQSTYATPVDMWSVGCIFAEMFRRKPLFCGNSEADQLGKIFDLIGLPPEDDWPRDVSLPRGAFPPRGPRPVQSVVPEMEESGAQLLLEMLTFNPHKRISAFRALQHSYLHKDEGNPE

Target: CDK3 (UniProt Q00526)
Test: kinase-Nluc reporter destabilization hit call (1 = scored as downregulated) (binary); higher = compound decreases kinase abundance
Settings: K562; 2-18 h

kinase-Nluc reporter destabilization hit call, inactive:
O=C(O)c1ccc(/C=C/S(=O)(=O)Cc2ccc(Cl)cc2)cc1 [Recilisib] (10 µM) 0
Nc1nc(NCCNc2ncc(-n3ccnc3)c(-c3ccc(Cl)cc3Cl)n2)ccc1[N+](=O)[O-] (2.5 µM) 0
Cc1cnc(NC(=O)c2cc(Oc3cnc(C(=O)N(C)C)nc3)c3cc(C)oc3c2)cn1 (10 µM) 0
CNC(=O)CNc1cnc2ccc(-c3ccc(OC)c(OC)c3)cc2n1 (10 µM) 0
N[C@@H]1CCCN(c2c(/C=C3\SC(=O)NC3=O)cccc2-c2ccccc2)C1 (10 µM) 0
CO[C@H]1C[C@@H]2CC[C@@H](C)[C@@](O)(O2)C(=O)C(=O)N2CCCC[C@H]2C(=O)O[C@H]([C@H](C)C[C@@H]2CC[C@@H](OC(=O)C(C)(CO)CO)[C@H](OC)C2)CC(=O)[C@H](C)/C=C(\C)[C@@H](O)[C@@H](OC)C(=O)[C@H](C)C[C@H](C)/C=C/C=C/C=C/1C [Temsirolimus] (2.5 µM) 0
COc1cc2nccc(Oc3ccc(NC(=O)c4cn(C(C)C)c(=O)n(-c5ccc(F)cc5)c4=O)cc3F)c2cc1OC (0.5 µM) 0
C=C1CCC[C@]2(C)C=C3OC(=O)C(C)=C3C[C@@H]12 [Atractylenolide I] (10 µM) 0
C=CC(=O)Nc1cc(Nc2nccc(-c3cn(C)c4ccccc34)n2)c(OC)cc1OCCN(C)C [Rezivertinib] (2.5 µM) 0
C=C1C(=O)[C@@]23[C@H](O)C[C@@H]4C(C)(C)C(=O)CC[C@@]4(C)[C@@H]2CC[C@@H]1[C@H]3O [Glaucocalyxin A] (2.5 µM) 0
NC1(C(=O)NCCCn2cc(-c3ccc(OC(F)(F)F)cc3)c3cc(CN4CCN(Cc5c(Cl)cccc5Cl)CC4)ccc32)CCNCC1 (2.5 µM) 0
CC(Sc1nc2c(cnn2-c2cccc(Cl)c2)c(=O)[nH]1)C(N)=O (centres undefined) (10 µM) 0
Fc1ccc2[nH]ccc2c1-c1nc(N2CCOCC2)c2sc(CN3CCN(CC4CC4)CC3)cc2n1 (10 µM) 0
Cn1cc(-c2cc(Oc3cc(F)c(NC(=O)C4(C(=O)Nc5ccccc5)CC4)cc3F)ccn2)cn1 (2.5 µM) 0
COc1ccc(S(=O)(=O)Nc2cc(-c3c(O)ccc4ccccc34)c(O)c3ccccc23)cc1 (10 µM) 0
Cn1c2cc([S+](C)[O-])sc2c2cnn(Cc3cccc(N)c3)c(=O)c21 (centres undefined) (2.5 µM) 0
O=C(NCCO)c1cc(C(=O)NCCO)cc(C(=O)NCCO)c1 (10 µM) 0
N#Cc1cnc2c(Cl)cc(NCc3cn(CCN4CCCCCC4)nn3)cc2c1Nc1ccc(F)c(Cl)c1 [Cot inhibitor-1] (10 µM) 0
Cn1c(=O)c2c(nc(S(C)(=O)=O)n2C)n(CC#Cc2cccc(O)c2)c1=O (2.5 µM) 0
Cc1ccc(C)c(OCCn2cc(C(=O)O)c3ccccc32)c1 (10 µM) 0
C=CC(=O)Nc1ccc(C(=O)Nc2[nH]nc3c2CN(C(=O)N[C@H](CN(C)C)c2ccccc2)C3(C)C)cc1 (10 µM) 0
Nc1ncnc2c1nc(Br)n2[C@@H]1O[C@@H]2COP(=O)(O)O[C@H]2[C@H]1O [8-Bromo-cAMP sodium salt] (10 µM) 0
O=c1[nH]ccc2nc(-c3ccc(CN4CCC(c5nc(-c6ccccn6)n[nH]5)CC4)cc3)c(-c3ccccc3)cc12 (10 µM) 0
COc1ccc(Nc2ncc(C(F)(F)F)c(NC3CC3)n2)cc1OC (10 µM) 0
O=C1NC(=O)/C(=C\c2c[nH]c(=O)c(-c3ccc(N4CCNCC4)nc3)c2)S1 [Protein kinase inhibitors 1 hydrochloride] (10 µM) 0
CCN(CC)CCCC(C)Nc1nc(C)cc(Nc2ccc3nc(C)cc(N)c3c2)n1 (centres undefined) (10 µM) 0

Target: CDK4 (UniProt P11802)
Test: as above
Settings: K562; 2-18 h

kinase-Nluc reporter destabilization hit call, inactive:
CC(C)CCN1c2nc(Nc3cc(F)c(O)c(F)c3)ncc2N(C)C(=O)C1C (centres undefined) (2.5 µM) 0
CC(C)=CC[C@@H](O)C1=CC(=O)c2c(O)ccc(O)c2C1=O [Shikonin] (10 µM) 0
CCC(=O)Nc1cccc(Oc2nc(Nc3ccc(N4CCN(C)CC4)cc3OC)ncc2Cl)c1 (10 µM) 0
CC(C)=CCC/C(C)=C/CC/C(C)=C/C=C/C(C)=C/C(=O)O [Peretinoin] (10 µM) 0
COc1ccc2c(Oc3ccc4c(C(=O)Nc5ccccc5N)cccc4c3)ccnc2c1 [Chiauranib] (10 µM) 0
Cc1nn(C)cc1-c1nc2c(N3CCN(Cc4ccc(Cl)cc4)CC3)c(Cl)cnc2[nH]1 (10 µM) 0
CNC(=O)c1cc2c(Oc3ccc(NC(=O)C4(C(=O)Nc5ccc(F)cc5)CC4)cc3)ccnc2cc1OC (2.5 µM) 0
O=C(Nc1cccnc1)c1cc(-c2ccnc(F)c2)ccc1OCc1ccccc1 (10 µM) 0
CN(C)c1ccc(-c2nc3ncc(Cl)c(N4CCN(CC(=O)Nc5nccs5)CC4)c3[nH]2)cc1 (2 µM) 0
Cc1cc(C(=O)NC(C)(C)C)cc(C#Cc2ccc3c4c(oc3c2)C(C)(C)c2cc(NS(C)(=O)=O)ccc2C4=O)n1 (10 µM) 0
O=C(O)c1cc(N(Cc2ccccc2O)Cc2cc(O)ccc2O)ccc1O [Lavendustin A] (10 µM) 0
C[C@@H](Nc1ncnc2[nH]c(-c3ccc(O)cc3)cc12)c1ccccc1 (2.5 µM) 0
O=C(O)c1ccc(/C=C/S(=O)(=O)Cc2ccc(Cl)cc2)cc1 [Recilisib] (10 µM) 0
Nc1nc(NCCNc2ncc(-n3ccnc3)c(-c3ccc(Cl)cc3Cl)n2)ccc1[N+](=O)[O-] (2.5 µM) 0
Cc1cnc(NC(=O)c2cc(Oc3cnc(C(=O)N(C)C)nc3)c3cc(C)oc3c2)cn1 (10 µM) 0
CNC(=O)CNc1cnc2ccc(-c3ccc(OC)c(OC)c3)cc2n1 (10 µM) 0
N[C@@H]1CCCN(c2c(/C=C3\SC(=O)NC3=O)cccc2-c2ccccc2)C1 (10 µM) 0
CO[C@H]1C[C@@H]2CC[C@@H](C)[C@@](O)(O2)C(=O)C(=O)N2CCCC[C@H]2C(=O)O[C@H]([C@H](C)C[C@@H]2CC[C@@H](OC(=O)C(C)(CO)CO)[C@H](OC)C2)CC(=O)[C@H](C)/C=C(\C)[C@@H](O)[C@@H](OC)C(=O)[C@H](C)C[C@H](C)/C=C/C=C/C=C/1C [Temsirolimus] (2.5 µM) 0
COc1cc2nccc(Oc3ccc(NC(=O)c4cn(C(C)C)c(=O)n(-c5ccc(F)cc5)c4=O)cc3F)c2cc1OC (0.5 µM) 0
C=C1CCC[C@]2(C)C=C3OC(=O)C(C)=C3C[C@@H]12 [Atractylenolide I] (10 µM) 0
C=CC(=O)Nc1cc(Nc2nccc(-c3cn(C)c4ccccc34)n2)c(OC)cc1OCCN(C)C [Rezivertinib] (2.5 µM) 0
C=C1C(=O)[C@@]23[C@H](O)C[C@@H]4C(C)(C)C(=O)CC[C@@]4(C)[C@@H]2CC[C@@H]1[C@H]3O [Glaucocalyxin A] (2.5 µM) 0
NC1(C(=O)NCCCn2cc(-c3ccc(OC(F)(F)F)cc3)c3cc(CN4CCN(Cc5c(Cl)cccc5Cl)CC4)ccc32)CCNCC1 (2.5 µM) 0
CC(Sc1nc2c(cnn2-c2cccc(Cl)c2)c(=O)[nH]1)C(N)=O (centres undefined) (10 µM) 0
Fc1ccc2[nH]ccc2c1-c1nc(N2CCOCC2)c2sc(CN3CCN(CC4CC4)CC3)cc2n1 (10 µM) 0
Cn1cc(-c2cc(Oc3cc(F)c(NC(=O)C4(C(=O)Nc5ccccc5)CC4)cc3F)ccn2)cn1 (2.5 µM) 0
COc1ccc(S(=O)(=O)Nc2cc(-c3c(O)ccc4ccccc34)c(O)c3ccccc23)cc1 (10 µM) 0
Cn1c2cc([S+](C)[O-])sc2c2cnn(Cc3cccc(N)c3)c(=O)c21 (centres undefined) (2.5 µM) 0
O=C(NCCO)c1cc(C(=O)NCCO)cc(C(=O)NCCO)c1 (10 µM) 0
N#Cc1cnc2c(Cl)cc(NCc3cn(CCN4CCCCCC4)nn3)cc2c1Nc1ccc(F)c(Cl)c1 [Cot inhibitor-1] (10 µM) 0
Cn1c(=O)c2c(nc(S(C)(=O)=O)n2C)n(CC#Cc2cccc(O)c2)c1=O (2.5 µM) 0
Cc1ccc(C)c(OCCn2cc(C(=O)O)c3ccccc32)c1 (10 µM) 0
C=CC(=O)Nc1ccc(C(=O)Nc2[nH]nc3c2CN(C(=O)N[C@H](CN(C)C)c2ccccc2)C3(C)C)cc1 (10 µM) 0
Nc1ncnc2c1nc(Br)n2[C@@H]1O[C@@H]2COP(=O)(O)O[C@H]2[C@H]1O [8-Bromo-cAMP sodium salt] (10 µM) 0
O=c1[nH]ccc2nc(-c3ccc(CN4CCC(c5nc(-c6ccccn6)n[nH]5)CC4)cc3)c(-c3ccccc3)cc12 (10 µM) 0
COc1ccc(Nc2ncc(C(F)(F)F)c(NC3CC3)n2)cc1OC (10 µM) 0
O=C1NC(=O)/C(=C\c2c[nH]c(=O)c(-c3ccc(N4CCNCC4)nc3)c2)S1 [Protein kinase inhibitors 1 hydrochloride] (10 µM) 0
CCN(CC)CCCC(C)Nc1nc(C)cc(Nc2ccc3nc(C)cc(N)c3c2)n1 (centres undefined) (10 µM) 0
